Converted amounts (≈) assume the structure as drawn.
Conditions: buffer, 72 h, pH 7.4

**Q.** For Nc1nnc(CCSCCc2nnc(NC(=O)Cc3ccccc3)s2)s1, which solubility is on record?
**A.** The solubility was 13 µg/mL (≈ 32 µM).
